{"source": "PubChem BioAssay AID2685", "about": "(National Center for Advancing Translational Sciences (NCATS), 2010)", "assay": "qHTS Assay for Lipid Storage Modulators in Drosophila S3 Cells;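 on cell number change: cells counted by Cell Tracker Red CMTPX staining in the red channel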", "settings": "BODIPY lipid droplet fluorescence, 18-24 h; for cell number change: measured here: cell count max response, cells fed with added oleic acid", "how_it_was_run": "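Laser-scanning cytometry quantifies lipid droplet accumulation (500–530 nm total intensity; droplet/cell object ratio) in oleic acid-fed (400 uM added) Drosophila S3 cells treated with a concentration series. 20 uM Triacsin C defined 100% inhibition.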", "key": {"[1]": {"settings": "measured here: lipid fluorescence (Fed channel) AC50, cells fed with added oleic acid"}, "[2]": {"settings": "measured here: cell number channel AC50, cells fed with added oleic acid"}}, "note": "The list shows a part of the results. Further columns of the screen follow, without active or inactive calls. The list favours compounds with an active or inconclusive main result. Potencies come from curve fits of mixed quality, noted in brackets."}
{"compound": "CSc1ccccc1NC(=O)CN(C)C(C)C(=O)NC(=O)NC1CCCCC1", "note": "(configuration not stated)", "values": [{"measurement": "cell number change", "result": 13.7, "unit": "%"}]}
{"compound": "Cn1c(=O)c2c(SCC(=O)Nc3ccccc3F)nc(C3CC3)nc2n(C)c1=O", "values": [{"measurement": "cell number change", "result": -8.08, "unit": "%"}, {"measurement": "AC50", "setting": "[1]", "result": "4.61 µM [falling, single point]"}]}
{"compound": "COC(=O)[C@]1(Cc2ccccc2)N[C@H](c2ccc(-c3ccccc3)cc2)[C@@H]2C(=O)N(C)C(=O)[C@@H]21", "values": [{"measurement": "cell number change", "result": 18.5, "unit": "%"}]}
{"compound": "NS(=O)(=O)c1ccc(CCNC(=O)c2cccc3ccccc23)cc1", "values": [{"measurement": "cell number change", "result": 8.4, "unit": "%"}, {"measurement": "AC50", "setting": "[1]", "result": "0.231 µM [rising, full curve, poor fit]"}]}
{"compound": "CCOC(=O)C1CCCN(C(=O)CSc2ccccc2)C1", "note": "(configuration not stated)", "values": [{"measurement": "cell number change", "result": -3.16, "unit": "%"}, {"measurement": "AC50", "setting": "[1]", "result": "20.6 µM [falling, partial curve, poor fit]"}]}
{"compound": "COc1cccc(C2CC(c3c(-c4ccccc4)c4cc(Cl)ccc4[nH]c3=O)=NN2S(C)(=O)=O)c1OC", "note": "(configuration not stated)", "values": [{"measurement": "cell number change", "result": -29.9, "unit": "%"}, {"measurement": "AC50", "setting": "[2]", "result": "2.91 µM [rising, single point]"}]}
{"compound": "CCCCN(C(=O)CSc1n[nH]c(-c2ccc(C)cc2)n1)c1c(N)n(CCCC)c(=O)[nH]c1=O", "values": [{"measurement": "cell number change", "result": 2.94, "unit": "%"}, {"measurement": "AC50", "setting": "[1]", "result": "20.6 µM [falling, partial curve, poor fit]"}]}
{"compound": "CCOC(=O)c1c(-c2ccc(C)s2)csc1NC(=O)c1cccs1", "values": [{"measurement": "cell number change", "result": 67.6, "unit": "%"}, {"measurement": "AC50", "setting": "[2]", "result": "0.146 µM [rising, full curve, poor fit]"}, {"measurement": "AC50", "setting": "[1]", "result": "1.03 µM [rising, full curve]"}]}
{"compound": "O=C(NC1CCCCC1)c1cc(Cl)nc2ccccc12", "values": [{"measurement": "AC50", "setting": "[1]", "result": "29.1 µM [falling, single point]"}]}
{"compound": "O=C(CCC(=O)Nc1ccccc1)NNC(=O)CCc1ccccc1", "values": [{"measurement": "cell number change", "result": -19.2, "unit": "%"}]}
{"compound": "O=C(NCCOc1ccccc1Cl)c1cc(F)c(F)cc1Cl", "values": [{"measurement": "cell number change", "result": -0.972, "unit": "%"}, {"measurement": "AC50", "setting": "[1]", "result": "4.61 µM [falling, single point]"}]}
{"compound": "COc1ccc(Nc2cc(Nc3ccc(OC)cc3)ncn2)cc1", "values": [{"measurement": "AC50", "setting": "[1]", "result": "0.58 µM [rising, single point]"}]}
{"compound": "Cc1[nH]c(=O)nc2c1CCC2", "values": [{"measurement": "cell number change", "result": -0.456, "unit": "%"}, {"measurement": "AC50", "setting": "[2]", "result": "2.06 µM [rising, single point]"}]}
{"compound": "CCn1c(SC(C)C)nnc1-c1cc(-c2ccccc2)sc1N", "values": [{"measurement": "cell number change", "result": -64.6, "unit": "%"}, {"measurement": "AC50", "setting": "[2]", "result": "9.2 µM [falling, partial curve]"}, {"measurement": "AC50", "setting": "[1]", "result": "5.8 µM [falling, partial curve]"}]}
{"compound": "COc1cc(/C=C/C(=O)OCC(=O)NC(=O)NC(C)(C)C)ccc1OCC#N", "values": [{"measurement": "cell number change", "result": 25.6, "unit": "%"}, {"measurement": "AC50", "setting": "[1]", "result": "9.2 µM [rising, partial curve]"}]}
{"compound": "COc1ccc2c(c1)sc1nc(-c3ccccc3)cn12", "values": [{"measurement": "cell number change", "result": -11, "unit": "%"}, {"measurement": "AC50", "setting": "[1]", "result": "1.16 µM [rising, single point]"}]}
{"compound": "O=C(NCCN1C(=O)S/C(=C\\c2ccccc2F)C1=O)C1CC(=O)N(Cc2ccccc2)C1", "note": "(configuration not stated)", "values": [{"measurement": "cell number change", "result": -4.68, "unit": "%"}]}
{"compound": "Cc1ccc(OCCN2CCCC2)cc1", "values": [{"measurement": "cell number change", "result": 1.66, "unit": "%"}, {"measurement": "AC50", "setting": "[1]", "result": "0.58 µM [rising, single point]"}]}
